Test results published in the supplement of paper PMC10849652.
Some of the results follow.

Sequences of proteins named here, by UniProt entry; tags and fusion partners are left off. A change or cut given only in a name is not applied to a line headed by its entry.
UniProt Q96H96: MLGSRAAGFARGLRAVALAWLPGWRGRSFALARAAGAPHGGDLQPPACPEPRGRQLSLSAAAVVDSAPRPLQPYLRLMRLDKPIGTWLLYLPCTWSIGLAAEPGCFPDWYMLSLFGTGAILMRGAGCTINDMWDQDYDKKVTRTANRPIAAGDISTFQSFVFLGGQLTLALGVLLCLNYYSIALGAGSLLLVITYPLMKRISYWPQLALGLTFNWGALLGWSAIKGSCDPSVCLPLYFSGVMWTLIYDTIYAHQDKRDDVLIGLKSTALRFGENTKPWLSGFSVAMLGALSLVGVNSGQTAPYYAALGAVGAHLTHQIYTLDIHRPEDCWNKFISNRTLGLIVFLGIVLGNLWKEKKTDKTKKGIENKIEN
UniProt Q96FN4: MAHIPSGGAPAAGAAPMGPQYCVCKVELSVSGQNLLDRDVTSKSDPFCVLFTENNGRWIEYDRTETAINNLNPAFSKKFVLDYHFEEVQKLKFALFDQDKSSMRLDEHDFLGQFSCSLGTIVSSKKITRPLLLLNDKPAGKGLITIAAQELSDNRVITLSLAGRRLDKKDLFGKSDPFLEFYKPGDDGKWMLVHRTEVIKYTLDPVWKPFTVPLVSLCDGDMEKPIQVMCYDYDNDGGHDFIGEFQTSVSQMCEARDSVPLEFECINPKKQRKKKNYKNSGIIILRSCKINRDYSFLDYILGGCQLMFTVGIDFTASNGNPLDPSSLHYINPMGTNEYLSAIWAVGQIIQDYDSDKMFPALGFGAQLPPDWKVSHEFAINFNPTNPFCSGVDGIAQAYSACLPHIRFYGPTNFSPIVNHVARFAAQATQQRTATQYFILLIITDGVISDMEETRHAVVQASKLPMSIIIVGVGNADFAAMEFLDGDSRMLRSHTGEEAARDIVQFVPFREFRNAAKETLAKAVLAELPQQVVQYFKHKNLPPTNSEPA
UniProt P53618: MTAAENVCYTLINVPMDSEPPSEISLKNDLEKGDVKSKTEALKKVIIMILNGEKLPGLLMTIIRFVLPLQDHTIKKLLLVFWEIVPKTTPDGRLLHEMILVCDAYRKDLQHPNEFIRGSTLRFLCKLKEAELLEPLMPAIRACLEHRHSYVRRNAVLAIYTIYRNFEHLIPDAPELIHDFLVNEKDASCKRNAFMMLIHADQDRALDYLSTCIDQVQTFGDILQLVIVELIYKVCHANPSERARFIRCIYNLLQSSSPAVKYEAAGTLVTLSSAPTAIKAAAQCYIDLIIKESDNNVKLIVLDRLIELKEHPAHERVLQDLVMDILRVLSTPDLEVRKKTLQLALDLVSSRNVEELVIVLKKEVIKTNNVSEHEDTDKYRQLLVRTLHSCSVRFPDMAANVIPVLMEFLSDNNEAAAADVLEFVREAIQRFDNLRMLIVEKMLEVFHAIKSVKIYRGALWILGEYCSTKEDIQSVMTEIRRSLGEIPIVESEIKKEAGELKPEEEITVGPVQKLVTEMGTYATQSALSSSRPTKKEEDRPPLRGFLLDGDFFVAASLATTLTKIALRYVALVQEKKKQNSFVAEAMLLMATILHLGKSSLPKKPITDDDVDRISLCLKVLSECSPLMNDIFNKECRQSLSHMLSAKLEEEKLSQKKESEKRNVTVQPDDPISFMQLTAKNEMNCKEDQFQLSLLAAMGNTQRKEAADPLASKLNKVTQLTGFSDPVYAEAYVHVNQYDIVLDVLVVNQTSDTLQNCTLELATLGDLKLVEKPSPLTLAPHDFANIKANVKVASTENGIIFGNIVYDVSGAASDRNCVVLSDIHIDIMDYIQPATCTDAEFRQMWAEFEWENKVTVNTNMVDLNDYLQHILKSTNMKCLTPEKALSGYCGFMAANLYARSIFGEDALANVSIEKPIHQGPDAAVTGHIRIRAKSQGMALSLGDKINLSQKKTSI
UniProt O75131: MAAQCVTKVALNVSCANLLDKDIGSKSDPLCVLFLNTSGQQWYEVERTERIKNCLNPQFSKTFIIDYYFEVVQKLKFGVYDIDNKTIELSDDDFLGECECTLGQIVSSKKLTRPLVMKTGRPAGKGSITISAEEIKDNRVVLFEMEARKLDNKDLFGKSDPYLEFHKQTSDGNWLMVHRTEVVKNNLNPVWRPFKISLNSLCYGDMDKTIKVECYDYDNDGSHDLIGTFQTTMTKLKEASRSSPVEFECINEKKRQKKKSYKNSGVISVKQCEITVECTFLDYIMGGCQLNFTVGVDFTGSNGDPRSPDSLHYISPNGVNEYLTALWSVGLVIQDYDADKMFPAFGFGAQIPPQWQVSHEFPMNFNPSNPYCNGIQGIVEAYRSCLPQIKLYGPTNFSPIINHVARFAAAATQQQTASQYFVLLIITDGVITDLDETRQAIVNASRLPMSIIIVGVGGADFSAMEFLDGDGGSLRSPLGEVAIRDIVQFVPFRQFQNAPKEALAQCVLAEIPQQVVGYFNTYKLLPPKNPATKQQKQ
UniProt Q99829: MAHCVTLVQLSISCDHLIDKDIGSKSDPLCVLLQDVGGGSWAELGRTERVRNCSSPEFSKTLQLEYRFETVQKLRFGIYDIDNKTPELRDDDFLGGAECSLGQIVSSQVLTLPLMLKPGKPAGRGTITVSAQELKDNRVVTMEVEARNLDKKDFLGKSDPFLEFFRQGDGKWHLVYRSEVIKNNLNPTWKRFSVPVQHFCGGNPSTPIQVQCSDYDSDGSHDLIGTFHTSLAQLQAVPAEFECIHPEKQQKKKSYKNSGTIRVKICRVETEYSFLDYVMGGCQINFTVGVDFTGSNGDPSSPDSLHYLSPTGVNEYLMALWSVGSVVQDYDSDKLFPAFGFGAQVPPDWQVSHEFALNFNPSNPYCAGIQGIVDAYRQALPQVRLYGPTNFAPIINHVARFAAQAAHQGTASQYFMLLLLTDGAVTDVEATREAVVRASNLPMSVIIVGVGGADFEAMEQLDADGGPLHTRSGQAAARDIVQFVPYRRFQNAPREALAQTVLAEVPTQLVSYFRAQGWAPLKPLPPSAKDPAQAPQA
UniProt Q7L5N1: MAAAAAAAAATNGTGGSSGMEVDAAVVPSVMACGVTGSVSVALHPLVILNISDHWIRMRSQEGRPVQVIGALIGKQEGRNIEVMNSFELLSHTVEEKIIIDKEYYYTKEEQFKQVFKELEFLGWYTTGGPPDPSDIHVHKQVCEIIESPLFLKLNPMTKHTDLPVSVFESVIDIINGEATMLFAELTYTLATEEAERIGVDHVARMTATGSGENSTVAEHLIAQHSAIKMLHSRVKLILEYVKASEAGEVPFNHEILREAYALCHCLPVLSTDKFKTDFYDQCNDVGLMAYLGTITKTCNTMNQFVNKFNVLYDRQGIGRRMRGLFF
UniProt Q8NI60: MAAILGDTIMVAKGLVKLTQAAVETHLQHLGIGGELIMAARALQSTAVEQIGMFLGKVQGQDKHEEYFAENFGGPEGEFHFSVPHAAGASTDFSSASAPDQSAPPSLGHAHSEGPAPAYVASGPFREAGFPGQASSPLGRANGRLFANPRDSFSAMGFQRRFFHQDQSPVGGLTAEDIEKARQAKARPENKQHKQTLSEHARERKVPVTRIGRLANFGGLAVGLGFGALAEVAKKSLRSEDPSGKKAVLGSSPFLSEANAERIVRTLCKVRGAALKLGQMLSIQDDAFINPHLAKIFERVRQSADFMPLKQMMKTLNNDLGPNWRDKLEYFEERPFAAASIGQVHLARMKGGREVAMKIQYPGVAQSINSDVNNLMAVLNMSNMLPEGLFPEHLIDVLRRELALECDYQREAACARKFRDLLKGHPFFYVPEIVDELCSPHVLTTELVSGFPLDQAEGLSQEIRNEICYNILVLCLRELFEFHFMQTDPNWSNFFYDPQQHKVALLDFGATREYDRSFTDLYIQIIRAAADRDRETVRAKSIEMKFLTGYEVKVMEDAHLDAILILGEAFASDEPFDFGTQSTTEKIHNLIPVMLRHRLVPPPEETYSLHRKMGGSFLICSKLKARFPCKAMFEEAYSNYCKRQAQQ
UniProt P31146: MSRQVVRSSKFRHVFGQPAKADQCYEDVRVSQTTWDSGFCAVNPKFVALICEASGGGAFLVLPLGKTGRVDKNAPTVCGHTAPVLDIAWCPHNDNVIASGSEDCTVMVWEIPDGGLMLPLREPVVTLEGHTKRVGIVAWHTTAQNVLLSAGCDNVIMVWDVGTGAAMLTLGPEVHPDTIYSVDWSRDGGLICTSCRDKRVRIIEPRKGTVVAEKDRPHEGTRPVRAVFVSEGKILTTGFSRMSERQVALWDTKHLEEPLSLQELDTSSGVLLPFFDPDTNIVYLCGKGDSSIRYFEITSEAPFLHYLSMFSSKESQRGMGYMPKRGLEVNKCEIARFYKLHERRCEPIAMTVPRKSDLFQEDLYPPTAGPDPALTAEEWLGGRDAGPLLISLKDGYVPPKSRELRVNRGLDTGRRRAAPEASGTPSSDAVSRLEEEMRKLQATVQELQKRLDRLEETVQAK
UniProt Q86VU5: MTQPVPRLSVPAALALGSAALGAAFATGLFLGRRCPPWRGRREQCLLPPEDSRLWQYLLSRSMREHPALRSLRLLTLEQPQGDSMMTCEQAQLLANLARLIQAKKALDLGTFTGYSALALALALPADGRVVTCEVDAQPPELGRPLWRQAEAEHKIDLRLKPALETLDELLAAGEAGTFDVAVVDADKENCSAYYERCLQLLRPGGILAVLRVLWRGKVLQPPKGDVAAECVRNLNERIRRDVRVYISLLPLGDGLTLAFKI
UniProt P12074, whole entry, looked up: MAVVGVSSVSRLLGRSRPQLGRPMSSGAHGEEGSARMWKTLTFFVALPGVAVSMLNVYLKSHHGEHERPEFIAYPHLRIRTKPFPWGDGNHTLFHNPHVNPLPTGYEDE
UniProt Q86VX2, whole entry, looked up: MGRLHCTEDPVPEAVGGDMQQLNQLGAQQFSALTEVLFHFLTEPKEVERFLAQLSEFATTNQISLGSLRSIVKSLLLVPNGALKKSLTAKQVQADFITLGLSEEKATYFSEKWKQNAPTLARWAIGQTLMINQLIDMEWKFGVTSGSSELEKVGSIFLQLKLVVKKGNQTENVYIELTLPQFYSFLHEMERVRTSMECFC
UniProt P61923: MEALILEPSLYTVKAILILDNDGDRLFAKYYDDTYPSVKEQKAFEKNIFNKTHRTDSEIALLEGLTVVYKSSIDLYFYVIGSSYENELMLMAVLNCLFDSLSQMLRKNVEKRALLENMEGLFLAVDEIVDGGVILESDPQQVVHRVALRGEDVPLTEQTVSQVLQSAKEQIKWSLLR
UniProt Q9UBF2: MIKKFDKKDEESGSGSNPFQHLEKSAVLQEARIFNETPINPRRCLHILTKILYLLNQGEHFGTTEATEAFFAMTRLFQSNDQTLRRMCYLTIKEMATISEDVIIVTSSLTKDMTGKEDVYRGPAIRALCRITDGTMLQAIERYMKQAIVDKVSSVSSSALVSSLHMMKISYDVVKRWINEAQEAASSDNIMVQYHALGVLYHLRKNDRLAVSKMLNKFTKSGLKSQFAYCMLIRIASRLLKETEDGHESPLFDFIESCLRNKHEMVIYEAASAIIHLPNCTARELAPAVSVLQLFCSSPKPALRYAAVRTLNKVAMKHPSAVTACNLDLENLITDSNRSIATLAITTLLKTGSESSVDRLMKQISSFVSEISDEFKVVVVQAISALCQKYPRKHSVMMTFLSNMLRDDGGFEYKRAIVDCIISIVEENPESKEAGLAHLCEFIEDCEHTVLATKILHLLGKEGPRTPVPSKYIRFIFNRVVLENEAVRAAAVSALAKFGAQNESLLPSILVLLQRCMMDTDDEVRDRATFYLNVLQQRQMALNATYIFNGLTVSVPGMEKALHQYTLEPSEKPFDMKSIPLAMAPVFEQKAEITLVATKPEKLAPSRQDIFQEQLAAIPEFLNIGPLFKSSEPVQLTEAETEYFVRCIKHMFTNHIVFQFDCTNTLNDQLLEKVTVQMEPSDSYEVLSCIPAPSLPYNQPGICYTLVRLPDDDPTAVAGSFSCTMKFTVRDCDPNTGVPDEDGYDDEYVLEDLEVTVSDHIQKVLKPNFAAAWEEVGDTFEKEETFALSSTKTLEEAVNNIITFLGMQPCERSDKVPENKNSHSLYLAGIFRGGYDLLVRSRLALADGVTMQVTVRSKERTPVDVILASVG
UniProt Q03060: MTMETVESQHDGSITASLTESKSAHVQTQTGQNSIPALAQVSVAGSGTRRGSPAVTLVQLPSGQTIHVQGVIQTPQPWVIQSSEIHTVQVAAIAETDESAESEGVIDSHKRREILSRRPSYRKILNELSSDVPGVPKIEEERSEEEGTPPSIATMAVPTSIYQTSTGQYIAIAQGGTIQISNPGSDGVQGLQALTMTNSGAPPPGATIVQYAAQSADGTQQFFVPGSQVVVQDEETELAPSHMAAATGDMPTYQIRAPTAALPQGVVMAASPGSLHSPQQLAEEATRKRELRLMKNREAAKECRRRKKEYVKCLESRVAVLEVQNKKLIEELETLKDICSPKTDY
UniProt Q9P000, whole entry, looked up: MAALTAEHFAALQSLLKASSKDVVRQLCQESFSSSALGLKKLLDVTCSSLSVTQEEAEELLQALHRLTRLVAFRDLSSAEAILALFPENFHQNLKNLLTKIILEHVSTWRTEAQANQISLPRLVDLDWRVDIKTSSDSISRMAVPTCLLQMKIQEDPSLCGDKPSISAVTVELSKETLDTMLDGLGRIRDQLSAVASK

These targets were tested with c1cn2cc(-c3ccc4cn[nH]c4c3)nc(Nc3ccc(N4CCOCC4)cc3)c2n1 [entospletinib] (assay: log2 fold change, soluble protein after heating vs DMSO (PISA); higher = thermal stabilisation; K562 cells, 10 uM, 30 min; active = over 0.2 and 3.5 SD of the protein, either way, in both replicates (recomputed)).
How it was run: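 K562 cells at 2×10^6 cells/mL were treated with 10 μM compound for 30 min. Aliquots were heated for 3 min across 48°C-58°C, pooled, and extracted in PBS with 0.5% NP-40 at 4°C; soluble protein was the supernatant after 21,000xg for 90 min. Soluble protein was quantified by TMTpro 16plex LC-MS/MS with channel sums equalised, and reported as log2 fold change in thermal stability against DMSO controls, with values from duplicates.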

log2 fold change, inactive:
COQ2 (UniProt Q96H96) 0.047
COQ6 (UniProt Q9Y2Z9) 0
CPNE2 (UniProt Q96FN4) -0.288
COPB1 (UniProt P53618) -0.019
CRYZL1 (UniProt O95825) -0.002
COLGALT1 (UniProt Q8NBJ5) 0.002
CPNE3 (UniProt O75131) 0
CPNE1 (UniProt Q99829) 0.001
COPS6 (UniProt Q7L5N1) 0.04
COQ8A (UniProt Q8NI60) 0.103
CORO1A (UniProt P31146) 0.039
COMTD1 (UniProt Q86VU5) 0.045
CPOX (UniProt P36551) 0.045
COX6A1 (UniProt P12074) 0.15
COMMD7 (UniProt Q86VX2) 0.022
COPZ1 isoform 4 (UniProt P61923) 0.016
COPG2 (UniProt Q9UBF2) -0.041
CRELD1 isoform 2 (UniProt Q96HD1) 0.033
CPA4 (UniProt Q9UI42) -0.058
CREM isoform 1 (UniProt Q03060) 0.081
COMMD9 (UniProt Q9P000) 0.015
COQ10B (UniProt Q9H8M1) 0.138
CRYZ (UniProt Q08257) 0.011

Two records picked at random from those above:
log2 fold change, inactive:
CPNE1 (UniProt Q99829) 0.001
CORO1A (UniProt P31146) 0.039
